At least one compound was matched to its structure with a doubt left.
System: Wistar rats
Assay: Novel object recognition task in rats
Format: in vivo, rat
Conditions: 3 mg/kg, versus vehicle, p<0.05
Description: FIG. 6 illustrates the effect of galantamine, compounds CNB-001, J147, SK186 and SKI 87 on object recognition task in Wistar rats. The data represent mean±SEM. *p<0.05 compared with the vehicle control.
This model is based on the greater spontaneous exploration of a novel object, compared with a familiar object, shown by rodents (see Ennaceur and Delacour in Behav. Brain Res. 31:47 (1988)). Male Wister rats are assessed for cognitive ability in a test apparatus comprising an open-field arena placed in a sound-attenuated room under dimmed lighting. Images of the open-field are captured by digital camera, and viewed on a monitor in an adjoining room. […]
Following a 5-minute habituation period, each rat was placed into the test arena in the presence of two identical objects (plastic shapes). Each rat was placed facing the same direction at the same position in the arena, and the time spent actively exploring the objects during a 5-minute test period (T1) was recorded. […] After 24 hours, each rat was again placed in the test arena for 5 minutes (T2) in the presence of one of the familiar objects and a novel object, and the time spent exploring both objects was again recorded. […]
Data were analyzed by a one-way analysis of variance (ANOVA) followed by post-hoc comparisons with Fisher Tests when appropriate. […]

Compound: COc1ccc2c3c1O[C@H]1C[C@@H](O)C=C[C@@]31CCN(C)C2 [Galantamine, reference compound]
- Effect on recognition index: significantly increased

From patent US8779002B2, “Methods for treating a variety of diseases and conditions, and compounds useful therefor” (Salk Institute for Biological Studies, priority 2007, dated 2014)
